Measured values published in the supplement of paper PMC12889115.
The other results are listed elsewhere or left out. These are raw signals, not scaled to a control.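 In the initial screen, polymyxin B was used at a concentration that permeabilizes Salmonella's outer membrane but not its inner membrane. Maximum growth was set by DMSO wells with or without polymyxin B. Since plates varied, data were ranked per plate, and compounds giving the lowest OD600 advanced as hits.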

Tested on: Salmonella enterica serovar Typhimurium SL1344
Assay: bacterial growth OD600 after 18 h with compound and polymyxin B; higher = more bacterial growth (less inhibition)
Conditions: 50 µM, Mueller-Hinton broth

Row | SMILES | bacterial growth OD600 (polymyxin B 0.75 µg/mL) | bacterial growth OD600 (polymyxin B 1 µg/mL)
1 | COc1ccc(CC2(CCC(=O)N3CCC(Cc4ccccc4)CC3)CCC(=O)N2)c(F)c1 (stereo not drawn) | 0.744 | 
2 | O=C(NC1(c2ccccc2)CC1)c1ccc(OC2CCN(C(=O)C3CC3)CC2)cc1 |  | 1.1
3 | COc1cccc(-c2ccccc2NC(=O)C2CCN(Cc3ccccc3F)CC2)c1 |  | 0.416
4 | CCCCNC(=O)c1cc(NC(=O)COC)c2c(c1)ncn2CCc1ccccc1 | 0.793 | 
5 | COc1ccc(CN2CCN(Cc3ccccc3F)C(CCO)C2)c(F)c1 (stereo not drawn) |  | 0.906
6 | CN(CC1CCCCO1)C(=O)CCc1nnc(CCc2c[nH]c3ccccc23)o1 (stereo not drawn) |  | 0.806
7 | O=C([C@H]1CC[C@H](O)CC1)N1CCC(C2CCN(Cc3cccc(F)c3F)CC2)C1 (stereo partly drawn) | 0.868 | 
8 | COc1cc(C(=O)NC2(c3ccccc3)CC2)ccc1OC1CCN(C(C)=O)CC1 |  | 0.977
9 | CCN(CC)CCNC(=O)C1CCN(C2CCN(Cc3cccc(C)n3)CC2)CC1 |  | 1.05
10 | Cc1nc2ccc(C(=O)N3CCc4c(cnc(C)c4CNC(=O)Cc4ccsc4)C3)cc2nc1C | 0.827 | 
11 | Cc1cc(C(=O)N(C)C(Cc2ccccc2)C2CCN(C(=O)CSc3ncccn3)CC2)n(C)n1 (stereo not drawn) | 1 | 
12 | COc1ccc(NC(=O)CCC2CCCN(C(=O)C3=C(C)OCCO3)C2)cc1Cl (stereo not drawn) |  | 0.881
13 | CCOC(=O)C1(Cc2ccc(F)cc2)CCCN(C(=O)c2cc(OC)ccc2OC)C1 (stereo not drawn) |  | 0.384
14 | Cn1cc(CCNC(=O)c2ccccc2OC2CCN(C(=O)c3cccnc3)CC2)cn1 | 0.808 | 
15 | CC(C)(C)CN1CCC(C2CCN(CCCn3cccn3)CC2)C1 (stereo not drawn) | 0.896 | 
16 | O=C(Cc1cccc(F)c1)NC1CC(=O)N(Cc2ccc(F)cc2)C1 (stereo not drawn) |  | 0.88
17 | COCCN1CCN(C(=O)c2cnn(-c3nccc(-c4ccccc4OC)n3)c2C2CC2)CC1 | 0.854 | 
18 | CC(C)NC(=O)C1CCCN(C2CCN(Cc3ccccc3)CC2)C1 (stereo not drawn) | 0.868 | 

Retrieved by structure from the entries so far:
Row | SMILES | bacterial growth OD600 (polymyxin B 0.75 µg/mL) | bacterial growth OD600 (polymyxin B 1 µg/mL)
18 | CC(C)NC(=O)C1CCCN(C2CCN(Cc3ccccc3)CC2)C1 (stereo not drawn) | 0.868 | 
8 | COc1cc(C(=O)NC2(c3ccccc3)CC2)ccc1OC1CCN(C(C)=O)CC1 |  | 0.977
